Results published in PubChem BioAssay AID576 (NMMLSC, 2007).
The campaign covered roughly 24,000 compounds. About 150 (0.62%) were called active.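 How the source made its calls: active means fluorescence ratio above 2.44, which is 1 plus 3 SD of all ratios; inconclusive means signal too bright to measure linearly, ratio around 10 or more; inactive means fluorescence ratio below 2.44.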 Inconclusive results, whose numbers are uncertain, are shown.

Test: compound autofluorescence on Jurkat cells, primary screen, artefact control for VLA-4 allosteric ligand project, cell-based, flow cytometry (AID 576);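 further: green fluorescence of cells measured with 488 nm excitation and 530 nm emission; tested at 10 µM compound in the well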
Conditions: hits give high values, 1 = vehicle-only cell background
With `Cc1c2ccncc2c(C)c2c1[nH]c1ccccc12` the fluorescence ratio was inconclusive: 13.7.
